Test results: publication PMC7819943, “Rice protein-binding microarrays: a tool to detect cis-acting elements near promoter regions in rice”
This is one part of the list.

Protein sequences, listed by entry. Tags and fused reporters are not part of them.
UniProt Q0JBA9, entry or part of it: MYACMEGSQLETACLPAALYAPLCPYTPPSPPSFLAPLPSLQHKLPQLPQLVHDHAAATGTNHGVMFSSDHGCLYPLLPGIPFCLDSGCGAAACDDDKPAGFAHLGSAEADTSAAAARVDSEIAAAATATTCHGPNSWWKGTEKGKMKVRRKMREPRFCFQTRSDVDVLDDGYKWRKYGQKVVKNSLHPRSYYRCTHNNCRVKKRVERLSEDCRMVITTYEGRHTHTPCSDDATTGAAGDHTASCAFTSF

The sequences below were run against OsWRKY34 (Oryza sativa, UniProt Q0JBA9 1-250) (assay: protein-binding microarray (RPBM); PBS, 2% BSA, 51.3 ng/ul salmon testes DNA, 50 uM zinc acetate, 200 nM TF, 25 C, 1 h; high values mean tight binding). Details: protein: recombinant; tags: N-terminal polyhistidine and DsRed monomer fusion (pET32a); label: CyDye5-dUTP incorporated in the synthesized complementary strand; 3' TTTTT single-stranded linker to array surface; dsDNA, one strand shown.
Outline: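 Ni–NTA purification followed expression in E. coli BL21-CodonPlus of transcription factors fused N-terminally to a polyhistidine tag and DsRed. At 200 nM in PBS with 2% BSA, salmon testes DNA and 50 µM zinc acetate, the protein was incubated for 1 h at 25 °C with a custom Agilent array that had been primer-extended with Cy5-dUTP and blocked with 2% BSA. After washing, the array was read on an Axon 4000B scanner. The binding signal is per-feature fluorescence intensity in arbitrary units.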

| Sequence | binding signal |
| --- | --- |
| CCGCATTTCCTTTCCCGTATCCCGCAGAGCAGAAGCACACCGGAGTCACCTAGTGCAG | 8120 fluorescence intensity (a.u.) |
| TTTTTCATCTTGTCCGTTCCTCACGTCACCTTGCTGCCCTCGGAGTCACCTAGTGCAG | 10600 fluorescence intensity (a.u.) |
| CCATTTTACTGCTGTTGCATGCACAACTTATATAACAAACCGGAGTCACCTAGTGCAG | 10100 fluorescence intensity (a.u.) |
| TTCGTTGCTTGCCGCTCTATAAATTTCCAGCTTCCTTTCGCGGAGTCACCTAGTGCAG | 8170 fluorescence intensity (a.u.) |
| TCAGTGTCAAACCGCTCCGATAGTGTTATATTTGCCGTGCCGGAGTCACCTAGTGCAG | 8700 fluorescence intensity (a.u.) |
| CTACTAGTAACTTGAAGTCGGGTGGGCTGGTTTCACCATACGGAGTCACCTAGTGCAG | 10500 fluorescence intensity (a.u.) |
| AACCAACTTAACGACCATTGCATGTAGTCATGTTCAGATTCGGAGTCACCTAGTGCAG | 8070 fluorescence intensity (a.u.) |
| GCTTCGTGTCATCTCGTCTCTGCATGGCAACCGAAAATTTCGGAGTCACCTAGTGCAG | 12200 fluorescence intensity (a.u.) |
| GCTATAGACGCCCTTTCATTTTTTTTATTTTATTATTTTTCGGAGTCACCTAGTGCAG | 8320 fluorescence intensity (a.u.) |
| TTTCACTTGCTTGTTTTTCATGTCCACACTTCCCAACTCACGGAGTCACCTAGTGCAG | 16600 fluorescence intensity (a.u.) |
| GTATGACTCCGACCTGCACACGTACAAATTTGTTTTCAACCGGAGTCACCTAGTGCAG | 9330 fluorescence intensity (a.u.) |
| CAACCTCCCGACCCGTTGCTGCCCTCTTCATTCGCTCGCTCGGAGTCACCTAGTGCAG | 9350 fluorescence intensity (a.u.) |
| GCGATTTCCTTGTGCCACTATCCTGGCTTGATGCGCAGTTCGGAGTCACCTAGTGCAG | 8110 fluorescence intensity (a.u.) |
| TCATCATGACCATTACGACAATTAGTACCTCAGTTTTTTACGGAGTCACCTAGTGCAG | 10800 fluorescence intensity (a.u.) |
| GTCCTCGTTTTTTTTTTCCTTCTCTTTTTCTTTTCCTTTTCGGAGTCACCTAGTGCAG | 9450 fluorescence intensity (a.u.) |
| AAATACTTTTGTTACTCTAATATGTTTATGTCGCTTCAGACGGAGTCACCTAGTGCAG | 8560 fluorescence intensity (a.u.) |
| ACCGTCTCATCTTCTTCTTCCTCCTCCTCTGATCTTCTCCCGGAGTCACCTAGTGCAG | 8220 fluorescence intensity (a.u.) |
| ATTTCTATTTGGACTCTTCTTTTCTTTTTCTTCGATTAATCGGAGTCACCTAGTGCAG | 10700 fluorescence intensity (a.u.) |
| ATATCCACCTCTCTAGATCTTTCTCGTCGCAAACGCCCTTCGGAGTCACCTAGTGCAG | 9990 fluorescence intensity (a.u.) |
| GCCACTAAGGAGAACGAGAGAGAAAGAGGGGAGGTGGGGTCGGAGTCACCTAGTGCAG | 8770 fluorescence intensity (a.u.) |
| CCGCTTCTCCGCCGTCCTTTTGCCAGGGCCACCGACACTACGGAGTCACCTAGTGCAG | 13100 fluorescence intensity (a.u.) |
| GCTTGTTGAATTTATGGCTGTACTATTGGTGAATTTATTACGGAGTCACCTAGTGCAG | 11700 fluorescence intensity (a.u.) |
| ATATTTCACTCTATTTTTATTGTATGTTGCACACTTTGATCGGAGTCACCTAGTGCAG | 8890 fluorescence intensity (a.u.) |
| TATCTTCTCCGTTTCCAGGCTTCCAGCCCACAACCTGACACGGAGTCACCTAGTGCAG | 8110 fluorescence intensity (a.u.) |
| TCCTCCTGTACGCTCGATCTCTCTTTTTCTCTCTCGCTATCGGAGTCACCTAGTGCAG | 13200 fluorescence intensity (a.u.) |
| TCCCCTCACTGACAAGTGGGCCACCAACCTGCATCCTGGCCGGAGTCACCTAGTGCAG | 8170 fluorescence intensity (a.u.) |
| TTTTTTTTGGTAATGCGTGGTATTTCTTGTTCGTGTAAAACGGAGTCACCTAGTGCAG | 9780 fluorescence intensity (a.u.) |

At a glance, part of the list above.

| Sequence | binding signal |
| --- | --- |
| AACCAACTTAACGACCATTGCATGTAGTCATGTTCAGATTCGGAGTCACCTAGTGCAG | 8070 fluorescence intensity (a.u.) |
| GCTTCGTGTCATCTCGTCTCTGCATGGCAACCGAAAATTTCGGAGTCACCTAGTGCAG | 12200 fluorescence intensity (a.u.) |

(further entries)

| Sequence | binding signal |
| --- | --- |
| TCACTTTCGGCGGCTACTCCTCTTGAGTCTTGACCGGTTGCGGAGTCACCTAGTGCAG | 8620 fluorescence intensity (a.u.) |
| GCTCCATCTCTCGTCTCGCGCTTCACTCCACATCTGTTTCCGGAGTCACCTAGTGCAG | 18300 fluorescence intensity (a.u.) |
| ACACACTATACACTACCCCATCCTACCCTACCCTACACTACGGAGTCACCTAGTGCAG | 8750 fluorescence intensity (a.u.) |
| TCCGATTTATTTGTCAAAATTGAGCGCTGTTTCGTTAGTTCGGAGTCACCTAGTGCAG | 9460 fluorescence intensity (a.u.) |
| CTTATCATCGACAGTTTCTTCTCGTTTCTGTCTCGTACGTCGGAGTCACCTAGTGCAG | 11900 fluorescence intensity (a.u.) |
| TGTCTTGGTCTTGTGGCGTTTATTGTTGCCGTCTGAGCGACGGAGTCACCTAGTGCAG | 11000 fluorescence intensity (a.u.) |
| CGTCTTTTTTCATTTTCCTATTGATCACTGAGGTTTTCGACGGAGTCACCTAGTGCAG | 10200 fluorescence intensity (a.u.) |
| AGAGTTCTCACTGTTACCTGTTGGTTATCTTTACATTACCCGGAGTCACCTAGTGCAG | 9110 fluorescence intensity (a.u.) |
| GCACTGGAAATTAATCATCGGCTTGTTCATCTCCACTGATCGGAGTCACCTAGTGCAG | 8640 fluorescence intensity (a.u.) |
| ACCGGATATTATTATTCTGCTAATTTATAGGGTTTTTTCACGGAGTCACCTAGTGCAG | 8820 fluorescence intensity (a.u.) |
| TGCACATAACATTTACCCTTTTTTTTCCCTTATCATATCACGGAGTCACCTAGTGCAG | 8510 fluorescence intensity (a.u.) |
| TTTTGTGTGTTGTTGTTTTTAATGTAAATTATCTTTCATACGGAGTCACCTAGTGCAG | 12200 fluorescence intensity (a.u.) |
| CCATCCACCTCTCTCGATCGTCTCATGAGCTAGCGCGCCCCGGAGTCACCTAGTGCAG | 8660 fluorescence intensity (a.u.) |
| GGTGGTGTTCATGAGCGATGACTCTGCCTGCCATTCACATCGGAGTCACCTAGTGCAG | 8550 fluorescence intensity (a.u.) |
| AATGCCACATGGACGTGACGTGTCCTTTACTTTTTTTTTCCGGAGTCACCTAGTGCAG | 11300 fluorescence intensity (a.u.) |
| CCCTTTTGTTTTTTGATGCAAATTCCCCTCCTTTTCTTTTCGGAGTCACCTAGTGCAG | 9740 fluorescence intensity (a.u.) |
| GTTTGACTTTTACACGTCCATATTAGAACTATAGAGTTATCGGAGTCACCTAGTGCAG | 8480 fluorescence intensity (a.u.) |
| CTCTACTATATATTCTGGCGCGAACCCGACTCCCTCCACACGGAGTCACCTAGTGCAG | 8320 fluorescence intensity (a.u.) |
| GTATCCTCCTTAAACTCGGTCTATTCTGGATAAACTTCCTCGGAGTCACCTAGTGCAG | 9110 fluorescence intensity (a.u.) |
| TTCAACGCCGCTCTCACTCTCACTATATTTATGAGCATTTCGGAGTCACCTAGTGCAG | 10700 fluorescence intensity (a.u.) |
| CGTCATCTTCCGTCTTAGCCTCACCGCTCCGTTCCGTTCCCGGAGTCACCTAGTGCAG | 10600 fluorescence intensity (a.u.) |
| GGAATTGGCCATAAGATTATTTTTCTCTGTATCTTTTTTCCGGAGTCACCTAGTGCAG | 10100 fluorescence intensity (a.u.) |
| CGCTCTCTGACATGTGGGGCCGGGTGGTTTGCATCAGAGGCGGAGTCACCTAGTGCAG | 8740 fluorescence intensity (a.u.) |
| GGTGGGCTTGCAAATCATAGTACTGAAGTGTAGAATTTTTCGGAGTCACCTAGTGCAG | 8180 fluorescence intensity (a.u.) |
| CACCGCCATCTCTCGCTCTCTCTCTCTCTCTCTCTCTCTCCGGAGTCACCTAGTGCAG | 10100 fluorescence intensity (a.u.) |
| TCTCCACCAGTGATGGCTGTGTCGGCCTCCTCGACCTACTCGGAGTCACCTAGTGCAG | 8740 fluorescence intensity (a.u.) |
| TCCTTGATATTTTTTCTGCCAGGTGTGGGGCCCGGGCCCACGGAGTCACCTAGTGCAG | 8190 fluorescence intensity (a.u.) |
